According to paper PMC8519022 (Angewandte Chemie (International Ed. in English), 2021):
For some of these results: HELM strings list residues between dots; [ac] is acetyl, [am] amide, other brackets name non-standard units. *1 amine or outer side, *2 acyl side, *3 side chain or, on linkers, in order; H or OH if unused. Where a SMILES comes first, the peptide text is derived from it. Bridges are numbered along the chain shown (N, C = ends). Triazole bridges read from a SMILES are 1,4-linked. [ ]: non-standard residue; d: D form. X1 = Cc1sc(C(=O)[C@@H]2CCCN2[*:2])cc1C1=C(c2cc(C(=O)[*:1])sc2C)CCC1; Aha = [N-]=[N+]=NCC[C@H](N)C(=O)O; Pra = C#CC[C@H](N)C(=O)O

Experiments:
[1] = Hydrogen/deuterium exchange by MALDI-TOF-MS (slow-exchanging protons); format: physicochemical; details: unexchanged backbone amide protons at 40 s (t1/2>40 s), 10 mM sodium citrate in D2O, pD 4.5, 22°C; for Number of slow-exchanging protons (closed): ring-closed photoform; for Number of slow-exchanging protons (open): ring-open photoform; for Number of slow-exchanging protons: non-photoswitchable reference
[2] = general procedure: Fmoc solid-phase peptide synthesis; HBTU, HATU, PyBOP

In the case of CC[C@H](C)[C@@H]1NC(=O)[C@@H]2CCCN2C(=O)[C@@H]2CCCN2C(=O)[C@H]([C@@H](C)CC)NC(=O)[C@H](CO)NC(=O)[C@H](CCCCN)NC(=O)[C@H]([C@@H](C)O)NC(=O)[C@@H]2Cc3cn(nn3)CC[C@H](NC1=O)C(=O)N[C@@H](CCCNC(=N)N)C(=O)N1CCC[C@H]1C(=O)c1cc(c(C)s1)C1=C(CCC1)c1cc(sc1C)C(=O)N[C@@H](Cc1ccccc1)C(=O)N2 [Peptide S6i] (F[Pra]TKSIPPI[Aha]R; triazole 2-10; linker N-C via X1), the “Number of slow-exchanging protons (closed)” value (shortened to “Number … (closed)”) ([1]; n = 3, listed as S6i open) is reported as 3.3 ± 0.2 and the “Number of slow-exchanging protons (open)” value ([1]; n = 3, listed as S6i open) is reported as 3.3 ± 0.1.

In the case of CC[C@H](C)[C@@H]1NC(=O)[C@@H]2CCCN2C(=O)[C@@H]2CCCN2C(=O)[C@H]([C@@H](C)CC)NC(=O)[C@H](CO)NC(=O)[C@H](CCCCN)NC(=O)[C@H]([C@@H](C)O)NC(=O)[C@@H]2Cc3cn(nn3)CC[C@H](NC1=O)C(=O)N[C@@H](Cc1ccccc1)C(=O)N1CCC[C@H]1C(=O)c1cc(c(C)s1)C1=C(CCC1)c1cc(sc1C)C(=O)N[C@@H](CCCNC(=N)N)C(=O)N2 [Peptide S6n] (R[Pra]TKSIPPI[Aha]F; triazole 2-10; linker N-C via X1), the “Number … (closed)” value ([1]; n = 3) is reported as 2.5 ± 0.1 and the “Number of slow-exchanging protons (open)” value ([1]; n = 3) is reported as 3.4 ± 0.1.

With CC[C@H](C)[C@@H]1NC(=O)[C@@H]2CCCN2C(=O)[C@@H]2CCCN2C(=O)[C@H]([C@@H](C)CC)NC(=O)[C@H](CO)NC(=O)[C@H](CCCCN)NC(=O)[C@H]([C@@H](C)O)NC(=O)[C@@H]2Cc3cn(nn3)CC[C@H](NC1=O)C(=O)N[C@@H](CCCNC(=N)N)C(=O)N[C@@H](CC(C)C)C(=O)N1CCC[C@H]1C(=O)c1cc(c(C)s1)C1=C(CCC1)c1cc(sc1C)C(=O)N[C@@H](C(C)C)C(=O)N[C@@H](Cc1ccccc1)C(=O)N2 [Peptide S11i] (VF[Pra]TKSIPPI[Aha]RL; triazole 3-11; linker N-C via X1) the “Number … (closed)” value ([1]; n = 3) was 3.5 ± 0.1 and the “Number of slow-exchanging protons (open)” value ([1]; n = 3) was 3.7 ± 0.2.

In the case of CC[C@H](C)[C@@H]1NC(=O)[C@@H]2CCCN2C(=O)[C@@H]2CCCN2C(=O)[C@H]([C@@H](C)CC)NC(=O)[C@H](CO)NC(=O)[C@H](CCCCN)NC(=O)[C@H]([C@@H](C)O)NC(=O)[C@@H]2CSSC[C@H](NC1=O)C(=O)N[C@@H](Cc1ccccc1)C(=O)N1CCC[C@H]1C(=O)N[C@@H](CC(=O)O)C(=O)NCC(=O)N[C@@H](CCCNC(=N)N)C(=O)N2 [SFTI‐1, sunflower trypsin inhibitor‐1, reference compound], the “Number of slow-exchanging protons” value ([1]; n = 3) is reported as 6.8 ± 0.4.

With CC[C@H](C)[C@@H]1NC(=O)[C@@H]2CCCN2C(=O)[C@@H]2CCCN2C(=O)[C@H]([C@@H](C)CC)NC(=O)[C@H](CO)NC(=O)[C@H](CCCCN)NC(=O)[C@H]([C@@H](C)O)NC(=O)[C@@H]2CSSC[C@H](NC1=O)C(=O)N[C@@H](CCCNC(=N)N)C(=O)N1CCC[C@H]1C(=O)N[C@@H](CC(=O)O)C(=O)NCC(=O)N[C@@H](Cc1ccccc1)C(=O)N2 [SFTI‐1i, reference compound] (cyclo(CRPDGFCTKSIPPI); disulfide 1-7) the “Number of slow-exchanging protons” value ([1]; n = 3) was 6.8 ± 0.2.

For “PEPTIDE1{G.R.C.T.K.S.I.P.P.I.C.F.P.D}$PEPTIDE1,PEPTIDE1,14:R2-1:R1|PEPTIDE1,PEPTIDE1,3:R3-11:R3$$$V2.0”, the “crude HPLC purity” value ([2]; whole synthesis, analytical HPLC, scale of the general procedure 0.1 mmol) was 35%.

For “PEPTIDE1{[DAE].A.T.K.S.I.P.P.I.A}$PEPTIDE1,PEPTIDE1,1:R1-10:R2$$$V2.0”, the difficulty met ([2]; cyclisation step) was “it was obtained with a very low yield at the cyclization step”.
